Data reported in PubChem BioAssay AID2685 (National Center for Advancing Translational Sciences (NCATS), 2010).
The list shows a part of the results. Shown are side measurements of this screen, not its main read-out; they come without a call. Compounds called inactive in the main read-out are mostly missing here. Words in brackets tell the shape of the fitted curve; partial curves, single points and poor fits give uncertain potencies.

Assay: qHTS Assay for Lipid Storage Modulators in Drosophila S3 Cells;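 on cell number change: cells counted by Cell Tracker Red CMTPX staining in the red channel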
Conditions: BODIPY lipid droplet fluorescence, 18-24 h; for cell number change: measured here: cell count max response, cells fed with added oleic acid
Outline: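 Drosophila S3 cells loaded with oleic acid (400 uM, as added) and compounds at several concentrations; lipid droplets imaged by 488-nm laser-scanning cytometry, 500–530 nm intensity and object ratio to cell channel. Percent activity normalized to 20 uM Triacsin C.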

[1] = measured here: lipid fluorescence (Fed channel) AC50, cells fed with added oleic acid
[2] = measured here: cell number channel AC50, cells fed with added oleic acid

| Structure (SMILES) | cell number change [%] | AC50 [1] | AC50 [2] |
| --- | --- | --- | --- |
| CC(C)NCC(O)c1ccc(O)c(O)c1 (stereo unspecified) | 15.9 | 29.1 µM [rising, single point] |  |
| COc1ccc(N2CCC(CNS(=O)(=O)c3cccc(C(F)(F)F)c3)C2)cc1 (stereo unspecified) |  |  | 6.51 µM [rising, single point] |
| COc1ccc(-c2csc(N)n2)cc1F | 50.2 |  | 29.1 µM [rising, single point] |
| CC(C)C(C)NC(=O)COC(=O)C1CCN(S(=O)(=O)c2ccc3c(c2)OCCO3)CC1 (stereo unspecified) | 9 |  |  |
| CCOC(=O)N1CCN(C(=O)CCS(=O)(=O)c2ccc3c(c2)CCN3C(=O)CC)CC1 | 0.917 | 29.1 µM [rising, single point] |  |
| CS(=O)(=O)N(CC(=O)NCCSCc1c(F)cccc1Cl)c1cccc([N+](=O)[O-])c1 | -46.7 | 32.6 µM [falling, single point] | 32.6 µM [falling, single point] |
| O=C(N/N=C/c1ccc(OC(F)F)cc1)c1cccc(S(=O)(=O)N2CCOCC2)c1 | -6.54 | 0.00517 µM [falling, full curve, poor fit] |  |
| CCc1nc(Sc2nnnn2-c2ccccc2)c2c3c(sc2n1)CCCC3 | -33.3 |  | 0.00461 µM [falling, full curve, poor fit] |
| Cc1c(Br)c(C(=O)NCc2cc3cc(Cl)ccc3[nH]2)nn1C | 40.7 | 1.46 µM [rising, partial curve] | 0.366 µM [rising, full curve] |
| CC(C)n1ncc2c(C(=O)NCc3ccccc3CN(C)C)cc(C3CC3)nc21 | -17.3 | 0.58 µM [rising, single point] |  |
| CCc1ccccc1NC(=S)N(Cc1cccnc1)Cc1ccco1 | 11.2 | 0.326 µM [rising, partial curve, poor fit] |  |
| COc1ccc(-c2nnc(SCC(N)=O)n2N)cc1 | -4.42 | 0.651 µM [falling, full curve] |  |
| COc1ccc(N2CCN(Cc3cc(OC)c(O)c([N+](=O)[O-])c3)CC2)cc1 | -25.6 | 1.03 µM [falling, full curve, poor fit] | 1.64 µM [falling, full curve, poor fit] |
| Cc1[nH]c2ccccc2c1/C=C/c1nc2ccccc2c(=O)[nH]1 | -37.1 | 29.1 µM [falling, single point] | 29.1 µM [falling, single point] |
| Oc1ccccc1-c1nc2cnccn2c1Nc1ccc2c(c1)OCCO2 |  | 2.59 µM [rising, partial curve] | 1.84 µM [rising, partial curve] |
| O=C1C2CCCCC2C(=O)N1c1ccc(NC2CCN(Cc3ccccc3)CC2)c([N+](=O)[O-])c1 (stereo unspecified) |  | 18.4 µM [rising, partial curve] |  |
| COC(=O)[C@]1(CC(C)C)N[C@H](c2ccc(-c3ccc(F)cc3)cc2)[C@@H]2C(=O)N(C)C(=O)[C@@H]21 | -44.6 |  | 18.4 µM [falling, single point] |
| Cc1cc2oc(=O)cc(CN3CCCCC3)c2cc1C | 24.8 |  |  |
| CC(C)=C(C#N)c1nc2ccccc2s1 | 108 | 1.03 µM [rising, partial curve] | 1.84 µM [rising, full curve] |

Arranged by molar mass (rising): 16 of the compounds above.

| Structure (SMILES) | cell number change [%] | AC50 [1] | AC50 [2] |
| --- | --- | --- | --- |
| CC(C)NCC(O)c1ccc(O)c(O)c1 (stereo unspecified) | 15.9 | 29.1 µM [rising, single point] |  |
| COc1ccc(-c2csc(N)n2)cc1F | 50.2 |  | 29.1 µM [rising, single point] |
| Cc1cc2oc(=O)cc(CN3CCCCC3)c2cc1C | 24.8 |  |  |
| COc1ccc(-c2nnc(SCC(N)=O)n2N)cc1 | -4.42 | 0.651 µM [falling, full curve] |  |
| CCc1ccccc1NC(=S)N(Cc1cccnc1)Cc1ccco1 | 11.2 | 0.326 µM [rising, partial curve, poor fit] |  |
| Oc1ccccc1-c1nc2cnccn2c1Nc1ccc2c(c1)OCCO2 |  | 2.59 µM [rising, partial curve] | 1.84 µM [rising, partial curve] |
| COc1ccc(N2CCN(Cc3cc(OC)c(O)c([N+](=O)[O-])c3)CC2)cc1 | -25.6 | 1.03 µM [falling, full curve, poor fit] | 1.64 µM [falling, full curve, poor fit] |
| Cc1c(Br)c(C(=O)NCc2cc3cc(Cl)ccc3[nH]2)nn1C | 40.7 | 1.46 µM [rising, partial curve] | 0.366 µM [rising, full curve] |
| CC(C)n1ncc2c(C(=O)NCc3ccccc3CN(C)C)cc(C3CC3)nc21 | -17.3 | 0.58 µM [rising, single point] |  |
| CCc1nc(Sc2nnnn2-c2ccccc2)c2c3c(sc2n1)CCCC3 | -33.3 |  | 0.00461 µM [falling, full curve, poor fit] |
| COc1ccc(N2CCC(CNS(=O)(=O)c3cccc(C(F)(F)F)c3)C2)cc1 (stereo unspecified) |  |  | 6.51 µM [rising, single point] |
| COC(=O)[C@]1(CC(C)C)N[C@H](c2ccc(-c3ccc(F)cc3)cc2)[C@@H]2C(=O)N(C)C(=O)[C@@H]21 | -44.6 |  | 18.4 µM [falling, single point] |
| O=C(N/N=C/c1ccc(OC(F)F)cc1)c1cccc(S(=O)(=O)N2CCOCC2)c1 | -6.54 | 0.00517 µM [falling, full curve, poor fit] |  |
| CCOC(=O)N1CCN(C(=O)CCS(=O)(=O)c2ccc3c(c2)CCN3C(=O)CC)CC1 | 0.917 | 29.1 µM [rising, single point] |  |
| CC(C)C(C)NC(=O)COC(=O)C1CCN(S(=O)(=O)c2ccc3c(c2)OCCO3)CC1 (stereo unspecified) | 9 |  |  |
| CS(=O)(=O)N(CC(=O)NCCSCc1c(F)cccc1Cl)c1cccc([N+](=O)[O-])c1 | -46.7 | 32.6 µM [falling, single point] | 32.6 µM [falling, single point] |

(cont.)

| Structure (SMILES) | cell number change [%] | AC50 [1] | AC50 [2] |
| --- | --- | --- | --- |
| CC(C)c1ccc2[nH]c(O)c(N=NC(=O)c3cccc(S(=O)(=O)N4CCCCC4)c3)c2c1 | 12.7 | 6.51 µM [rising, single point] |  |
| COc1ccc(S(=O)(=O)NCC(c2cccs2)N2CCc3ccccc3C2)cc1 (stereo unspecified) | -50.8 | 25.9 µM [falling, partial curve, poor fit] | 23.1 µM [falling, partial curve, poor fit] |
| O=C(NCCCN1CCOCC1)c1ccc2c(c1)N(Cc1c(F)cccc1Cl)C(=O)c1ccccc1S2 | 8.26 |  |  |
| O=C(CNc1ccc2ccccc2c1)N/N=C/c1ccccn1 | -11.5 | 11.6 µM [falling, partial curve, poor fit] |  |
| CCN(CC)S(=O)(=O)c1cc(C(=O)Oc2cccc(-c3cnc4ccccc4n3)c2)ccc1OC | 9.95 |  | 0.103 µM [falling, full curve, poor fit] |
| Clc1cccc(CN2COc3c(cc(Cl)c4cccnc34)C2)c1 | -22.2 | 2.06 µM [falling, partial curve] |  |
| COc1cccc(-c2nc(CS(=O)(=O)CC(=O)NCCCN3CCOCC3)c(C)o2)c1 | -45.2 |  | 29.1 µM [falling, single point] |
| CCOC(=O)c1cnc(SCC(=O)N2CCc3ccccc32)nc1N |  | 1.84 µM [rising, partial curve] | 6.51 µM [rising, single point] |
| C[C@@H]1CCC(=O)N(CC[C@H](Sc2ccccc2)c2ccccc2)CC1 | -1.94 | 0.092 µM [falling, full curve, poor fit] |  |
| CCOC(=O)C1CCCN(C(=O)C2CCN(c3nnc(-n4cccc4)s3)CC2)C1 (stereo unspecified) |  | 18.4 µM [falling, partial curve] |  |
| COc1cccc(C(=O)Nc2cc(NC(=O)c3cccs3)ccc2C)c1OC | -42.8 |  | 8.2 µM [falling, partial curve] |
| CCCCNC(=S)N1CCn2cccc2C1c1ccc(F)cc1 (stereo unspecified) | -30.2 | 0.291 µM [falling, full curve] | 3.26 µM [falling, full curve, poor fit] |
| O=C(COC(=O)c1cccnc1Cl)c1ccc2c(c1)OCCO2 |  | 3.26 µM [falling, partial curve] |  |
| Cc1cc(NC(=O)c2cc(-c3ccc(O)cc3)on2)no1 | -6.19 |  | 0.92 µM [falling, full curve, poor fit] |
| Cc1ccc(C)n1-c1ccc(N2CCOCC2)cc1 |  |  | 6.51 µM [rising, single point] |
| CCOC(=O)N1CCN(S(=O)(=O)c2ccc([N+](=O)[O-])cc2)CC1 | -17.8 | 25.9 µM [falling, single point] |  |
| CCOc1ccc(Nc2nc3c(c(=O)[nH]2)CCCC3)cc1 | -11.1 | 16.4 µM [rising, partial curve, poor fit] |  |
| Cc1ccc(NC(=O)NC2=NN(c3ccccc3)C(=O)/C2=C2/CCCN2C)cc1 | -90.3 |  |  |
| O=C(CSc1nc2c(sc3ccccc32)c(=O)n1CCCN1CCCC1)NCc1ccco1 | 19.3 | 5.8 µM [rising, single point] | 4.11 µM [rising, single point] |

| Structure (SMILES) | cell number change [%] | AC50 [1] | AC50 [2] |
| --- | --- | --- | --- |
| CCOC(=O)C1CCN(S(=O)(=O)c2ccc3[nH]c(=O)oc3c2)CC1 | 6.72 |  |  |
| NS(=O)(=O)c1ccc(CCNC(=O)c2cc([N+](=O)[O-])ccc2N2CCOCC2)cc1 | -0.834 | 6.51 µM [rising, single point] | 2.06 µM [rising, partial curve] |
| CC(C)C[C@H](NC(=O)C1CC(=O)N(c2ccc3c(c2)OCCO3)C1)C(=O)NC1CCCC1 (stereo partly specified) | -7.65 |  |  |
| COc1ccc(/C=C/CN2CCC(CO)(Cc3ccccc3Cl)CC2)cc1 | -14.5 | 18.4 µM [falling, single point] |  |
| Cc1nn(Cc2ccc(Cl)cc2)c(C)c1NC(=O)/C=C/c1cnn(C)c1 | -1.03 | 2.91 µM [rising, partial curve] |  |
| O=C(CN1CCN(S(=O)(=O)c2ccc3ccccc3c2)CC1)N1CCc2ccccc2C1 | 1.88 | 11.6 µM [rising, partial curve, poor fit] |  |
| Cc1cc(Cl)cc(C)c1OCCCCCn1ccnc1 | -9.62 |  |  |
| COc1ccc(N(C)S(=O)(=O)c2cccc(C(=O)NC3CCCC3)c2)cc1 | 25.5 |  |  |
| CC(C)(C)SCCNC(=O)c1ccc(NS(C)(=O)=O)cc1 | 8.56 | 14.6 µM [rising, partial curve] |  |
| Cc1ccccc1NC(=O)N1c2ccccc2CC1C (stereo unspecified) | 145 | 0.82 µM [falling, single point] |  |
| Cc1cc(=O)oc2cc(OCC(=O)N/N=C/c3cc([N+](=O)[O-])ccc3O)ccc12 | 9.08 | 0.184 µM [rising, full curve, poor fit] |  |
| COc1ccc(OC)c(NS(=O)(=O)c2ccc(NC(=O)c3ccc(NS(C)(=O)=O)cc3)cc2)c1 | 58.4 | 0.326 µM [rising, partial curve, poor fit] | 0.116 µM [rising, full curve] |
| O=C(CN1C(=O)c2ccccc2C1=O)Nc1nnc(C2CCCO2)s1 (stereo unspecified) | -16.3 | 1.46 µM [rising, full curve, poor fit] |  |
| O=C(CSc1ccc(-c2cccnc2)nn1)N1CCCCCC1 | 25.9 | 14.6 µM [rising, partial curve] |  |
| Cn1c(SCC(=O)NC2CC2)nnc1-c1ccccc1Cl | -19.5 | 0.651 µM [falling, partial curve] |  |
| CCCOc1ccc(C(=O)Nc2cc(S(=O)(=O)N3CCOCC3)ccc2N2CCOCC2)cc1 | 52.1 | 23.1 µM [rising, single point] | 23.1 µM [rising, single point] |
| CC1CCN(S(=O)(=O)c2cccc(C(=O)O)c2)CC1 |  | 29.1 µM [falling, single point] | 6.51 µM [falling, single point] |
| COC(=O)c1cc(S(=O)(=O)Nc2cccc(C)c2C)cn1C | 12.6 | 29.1 µM [rising, single point] |  |
| CC(=O)Nc1ccc(NS(=O)(=O)c2ccc3c(c2)oc(=O)n3C)cc1 | 13.7 |  |  |
